Reference: PubChem BioAssay AID540276 (National Center for Advancing Translational Sciences (NCATS), 2011)
The whole screen tested about 300,000 compounds, of which about 5,400 (1.8%) were called active. Inconclusive results, whose numbers are uncertain, are shown with a selection of clear calls. Calls come from the whole dose curve; tested in HEK293 cells. Potencies beside an inconclusive call are fits to weak or partial responses and may not hold up. The source holds several records for some structures; these can differ, active in one and inactive in another.
% is set by controls: 0 for no effect and ±100 for the full control effect; potency is the fitted concentration of half-maximal effect.

Experiment: qHTS for inhibitors of binding or entry into cells for Marburg Virus
Settings: Marburg virus pseudotyped entry inhibition, cell reporter; activity change, negative = inhibition: at 37.8 µM (top of the series) unless noted
For `OC(CN1CCCCC1)c1ccc2c3c(cccc13)CC2` (configuration not stated), the Potency was inconclusive: 7.08 µM [inhibitor, partial curve, poor fit].
With `CCc1ccccc1NC(=O)NC1CC2CCC(C1)N2Cc1ccco1` (configuration not stated) the Potency was inconclusive: 0.355 µM [inhibitor, full curve, poor fit].
For `COCCNC(=O)C(NC(=O)C1CCCCC1)C(C)C` (configuration not stated), the “activity change, negative = inhibition” value was inactive: 5.31% [at 46.1 µM].
With `COc1ccc(/C=C2\Oc3cc(OC(=O)N4CCOCC4)ccc3C2=O)c(OC)c1` the Potency was inconclusive: 6.31 µM [inhibitor, single point].
With `Cc1ccccc1Cn1c(=O)n(CCC(=O)NCc2ccc3c(c2)OCO3)c(=O)c2ccccc21` the Potency was inconclusive: 13 µM [inhibitor, partial curve].
For `O=C(O)c1cc(N/N=C/c2ccncc2)ccc1Cl`, the “activity change, negative = inhibition” value was inactive: -19.6% [at 46.1 µM].
In the case of `COc1ccc(/C=N/NC(N)=S)cc1`, the “activity change, negative = inhibition” value is reported as inactive: 8.66% [at 46.1 µM].
In the case of `COc1cccc(NC(=O)c2sc3nc(C)c(C(=O)Nc4ccc(C)cc4C)c(-c4ccc(C)o4)c3c2N)c1`, the Potency is reported as inconclusive: 5.01 µM [inhibitor, partial curve, poor fit].
With `COc1ccc(-c2cccc(C(=O)Nc3ccccc3C)c2)cc1` the Potency was inconclusive: 0.1 µM [activator, full curve, poor fit].
For `CC(C)(C)n1ncc2c(=O)n(CC(=O)NCCc3ccccc3)cnc21`, the “activity change, negative = inhibition” value was inactive: 9.98%.
In the case of `COc1cccc2c1cc1c(=O)n(CC(=O)NCc3ccc(N(C)C)cc3)nc(C)n12`, the Potency is reported as inconclusive: 5.62 µM [inhibitor, single point].
In the case of `O=C(c1ccc(-c2ccccc2)cc1)c1ccccc1C(=O)N1CCOCC1`, the “activity change, negative = inhibition” value is reported as inactive: 21.5%.
With `CCCCCCCC1=Cc2ccccc2C(CC(=O)c2ccccc2)N1C(=O)OC` (configuration not stated) the Potency was inconclusive: 2.99 µM [inhibitor, partial curve, poor fit].
In the case of `COc1ccc(NC(=O)NCCN2CCc3ccccc3C2)cc1`, the Potency is reported as inconclusive: 1 µM [activator, single point].
With `COc1ccc(C(=O)NNC(=O)c2ccncc2)cc1[N+](=O)[O-]` the Potency was inconclusive: 5.62 µM [inhibitor, single point].
For `COc1ccc(Oc2nc(-c3ccncc3)nc3ccccc23)cc1`, the Potency was inconclusive: 0.891 µM [inhibitor, partial curve, poor fit].
In the case of `COc1ccc(COC(=O)N/N=C2\C[C@@H](O)[C@@H](O)[C@@H]3[C@@H]4C(=O)N(C5CCCCC5)C(=O)[C@@H]4CC[C@H]23)cc1`, the Potency is reported as inconclusive: 0.944 µM [activator, single point].
For `O=C(/C=C/c1ccc(Cl)cc1Cl)N(Cc1ccc(Cl)cc1)C1CCS(=O)(=O)C1` (configuration not stated), the Potency was inconclusive: 6.51 µM [inhibitor, single point].
For `O=C(Nc1cnn(Cc2ccccc2)c1)c1cc2nc(-c3ccco3)cc(C(F)(F)F)n2n1`, the Potency was “inactive”.
With `COc1cc(O)ccc1-c1nc2cc(C)ccn2c1Nc1ccccc1C` the Potency was inconclusive: 11.2 µM [inhibitor, partial curve, poor fit].
With `O=C(c1ccccc1)N1CCN(C(=O)c2nn3c(C(F)(F)F)cc(-c4ccco4)nc3c2Cl)CC1` the “activity change, negative = inhibition” value was inactive: 2.44% [at 46.1 µM].
With `CC(C)(O)C1Cc2cc(/C=C/C(=O)O)c(O)cc2O1` (configuration not stated) the Potency was inconclusive: 7.08 µM [inhibitor, full curve, poor fit].
In the case of `Cc1nn(C(C)C)c(C)c1CN1CCCC(C(=O)c2cccc(OC(C)C)c2)C1` (configuration not stated), the Potency is reported as active: 12.6 µM.
In the case of `Cc1ccc(O)c(Nc2c3ccccc3nc3ccccc23)c1`, the Potency is reported as inconclusive: 3.16 µM [inhibitor, single point].
In the case of `CCN1CCN(c2ccc(NC(=O)c3cccc(F)c3)cc2Cl)CC1`, the Potency is reported as inconclusive: 25.1 µM [inhibitor, partial curve, poor fit].
In the case of `COc1cc2nc(=S)n3[nH]c(CCn4nc(C)cc4C)nc3c2cc1OC`, the Potency is reported as inconclusive: 1.26 µM [inhibitor, partial curve, poor fit].
For `Cc1ccc(OCC(=O)N/N=C\c2cn(C)c3ccccc23)c([N+](=O)[O-])c1`, the Potency was inconclusive: 14.6 µM [inhibitor, partial curve, poor fit].
In the case of `COc1ccc(OC)c(N(CC(=O)Nc2cccnc2)S(=O)(=O)c2ccc(OC)c(OC)c2)c1`, the Potency is reported as active: 2.82 µM.
With `CC1=C(C(=O)OC2CCCCC2)C(c2ccc(C)o2)C2=C(CCCC2=O)N1` (configuration not stated) the Potency was inconclusive: 35.5 µM [inhibitor, single point].
For `Clc1ccc(-n2ncc3c(NCC4CCCO4)ncnc32)cc1` (configuration not stated), the “activity change, negative = inhibition” value was inactive: -13.6%.
With `Cc1cccc(C=Nc2ccc3c4c(cccc24)CC3)c1O` the Potency was inconclusive: 10 µM [activator, partial curve, poor fit].
With `O=c1cc(N2CCCCC2)c(-c2ccccc2)nn1Cc1ccccc1Cl` the Potency was inconclusive: 35.5 µM [inhibitor, single point].
For `O=C(Nc1cc(S(=O)(=O)N2CCOCC2)ccc1Cl)C(=O)c1c(-c2ccccc2)cc2ccccn12`, the Potency was inconclusive: 29.1 µM [inhibitor, single point].
With `COc1ccc(CCN2C(=O)N(c3ccc(C)cc3)C(=O)C2CC(=O)Nc2ccc(OC)cc2)cc1` (configuration not stated) the Potency was inconclusive: 11.2 µM [inhibitor, partial curve, poor fit].
With `Cc1cccc(C(=O)NCC(=O)OCC(=O)N2CCc3ccccc32)c1` the “activity change, negative = inhibition” value was inactive: -5.44% [at 46.1 µM].
In the case of `Cc1ccsc1CN(C)C(=O)c1ccc(Oc2ccccc2)cc1`, the Potency is reported as inconclusive: 6.31 µM [activator, single point].
In the case of `O=C(NCc1ccccc1C(F)(F)F)C1CCC(=O)N(CCCc2ccccc2)C1` (configuration not stated), the Potency is reported as inconclusive: 0.355 µM [inhibitor, full curve, poor fit].
With `CC(CNC(=O)c1csc2c1CCCCC2)c1ccccc1` (configuration not stated) the Potency was inconclusive: 35.5 µM [inhibitor, single point].
For `COc1ccc(NC(=O)CN2C(=O)CSC(C)C2=O)cc1` (configuration not stated), the “activity change, negative = inhibition” value was inactive: 9.48%.
For `CC(C)C(=O)Nc1cccc(NC(=S)NC(=O)c2ccc(Cl)cc2)c1`, the Potency was inconclusive: 18.3 µM [inhibitor, single point].
